PubChem BioAssay AID504834 (National Center for Advancing Translational Sciences (NCATS), 2011)
About 22,000 (6.9%) of roughly 320,000 compounds were called active. The inconclusive results got no clear call from the source; some entries with a clear call stand among them for comparison. Calls come from the whole dose curve; as a rule, active = well fitted inhibition curve with a large enough effect; inconclusive = small, poorly fitted or top-dose-only effect, or another doubt; inactive = no such curve, though single readings can be large or run the other way. Potencies of inconclusive entries are doubtful fits and often do not repeat.

Assay: Primary qHTS for delayed death inhibitors of the malarial parasite plastid, 96 hour incubation
Conditions: P. falciparum luciferase reporter growth; series mostly up to 28.7 µM
In short: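 Plates of compound plus infected erythrocytes (2% hematocrit, 0.05% parasitemia final) incubate 96 hours, 37 C, 5% CO2. Detection reagent added; reduced luminescence from the parasites' luciferase reporter flags inhibition.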
Potency is the fitted concentration of half-maximal effect.

| SMILES | Potency |
| --- | --- |
| CC(=O)C(Sc1ccc2nnc(-c3cccnc3)n2n1)C(C)=O | inactive |
| COc1cc(/C=N/NS(=O)(=O)c2ccc(C)cc2)ccc1OCc1cccc(C(=O)O)c1 | inconclusive: 16.5 µM [inhibitor, single point] |
| COc1ccc(C2=NOC(Cn3nc(C(=O)NCc4ccco4)cc3-c3ccccc3)C2)cc1 (stereo not drawn) | active: 10.4 µM |
| CCC(=O)NC(Nc1sc2c(c1C(=O)OC)CCN(C)C2)(C(F)(F)F)C(F)(F)F | inconclusive: 7.38 µM [inhibitor, partial curve, poor fit] |
| O=C(CCN1CCCCCC1)c1ccccc1 | inconclusive: 18.5 µM [inhibitor, single point] |
| O=c1c(S(=O)(=O)c2ccc(Cl)cc2)cn(Cc2cccc(F)c2)c2ccc(F)cc12 | inconclusive: 18.5 µM [inhibitor, single point] |
| COc1ccc([N+](=O)[O-])cc1Nc1ncnc2ccccc12 | inconclusive: 0.262 µM [inhibitor, full curve, poor fit] |
| CC(=O)Nc1ccc(N=NC2C(=O)N(C(N)=S)N=C2C)cc1 (stereo not drawn) | inconclusive: 7.38 µM [inhibitor, partial curve, poor fit] |
| c1nc(NCc2ccc3c(c2)OCO3)c2cc(-c3ccoc3)ccc2n1 | inconclusive: 18.5 µM [inhibitor, single point] |
| CN1CCC(C(=O)N2CCCC(C(=O)c3ccc4c5c(cccc35)CC4)C2)CC1 (stereo not drawn) | inconclusive: 11.7 µM [inhibitor, single point] |
| Cc1cccc(-n2c(Cc3ccccc3)nnc2SCC(=O)N2CCOCC2)c1 | active: 4.15 µM |
| C/C(N)=C(/C#N)C(=O)CSc1nc2ccccc2c(=O)n1Cc1ccc(C)cc1 | inconclusive: 11.7 µM [inhibitor, single point] |
| COC(=O)C1=C(C)N(Cc2ccccc2)C(=NCCCCO)N[C@H]1CCc1ccccc1 | active: 3.7 µM |
| CCn1c(COc2ccccc2C)nnc1SCC(=O)N1CCC(C)CC1 | inconclusive: 18.5 µM [inhibitor, partial curve, poor fit] |
| Cc1ccc(-c2nc(CS(=O)CC(=O)NC(C)CCc3ccccc3)c(C)o2)cc1 (stereo not drawn) | inactive |
| O=C(/C=C/c1ccccc1Cl)Nc1cccc(S(=O)(=O)NC2=NCCCCC2)c1 | inconclusive: 2.62 µM [inhibitor, partial curve, poor fit] |
| O=C(COc1ccc2c3c(c(=O)oc2c1)CCCC3)NCCCN1CCCC1=O | inconclusive: 14.7 µM [inhibitor, single point] |
| Cc1ccc(-c2cnc(NC(=O)c3cccc(Br)c3)s2)c(C)c1 | inactive |

Looked up above:
Under Potency, `CN1CCC(C(=O)N2CCCC(C(=O)c3ccc4c5c(cccc35)CC4)C2)CC1` (stereo not drawn) is listed with inconclusive: 11.7 µM [inhibitor, single point]
Under Potency, `O=C(COc1ccc2c3c(c(=O)oc2c1)CCCC3)NCCCN1CCCC1=O` is listed with inconclusive: 14.7 µM [inhibitor, single point]
